A short description of this assay: qHTS Assay for Lipid Storage Modulators in Drosophila S3 Cells.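 For cell number change: cells counted by Cell Tracker Red CMTPX staining in the red channel.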 As to conditions: BODIPY lipid droplet fluorescence, 18-24 h; for cell number change: measured here: cell count max response, cells fed with added oleic acid. In a few lines: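 Drosophila S3 cells got compounds at several concentrations plus oleic acid (400 uM solution). Laser-scanning cytometry with 488 nm excitation read lipid droplets at 500-530 nm and cells at 575-640 nm. Percent activity was relative to 20 uM Triacsin C.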
Background: qHTS replaces the single test concentration by a dilution series.

Where [1] appears, read: measured here: lipid fluorescence (Fed channel) AC50, cells fed with added oleic acid.
The mark [2] stands for this setting: measured here: cell number channel AC50, cells fed with added oleic acid.

The other results are listed elsewhere or left out. The main result of the screen is listed elsewhere. These columns were measured beside it and carry no call. Compounds called inactive in the main read-out are mostly missing here. The note in brackets gives the kind of curve behind each potency; many fits are weak.

In the case of `CCOCCCn1c(SCC(=O)Nc2ccccc2)nc2ccccc2c1=O`, the cell number change was -2.11%. Moreover, the AC50 under setting [1] is 29.1 µM [falling, single point]. For `Nc1nc(-c2ccc3ccccc3c2)c(C2(O)C(=O)Nc3c(Br)cc(F)cc32)s1` (configuration not stated), the cell number change is -6.12%. For the same compound, under setting [2], the AC50 is 3.26 µM [falling, single point]. The AC50 under setting [1] was 14.6 µM [falling, partial curve]. `O=C(COC(=O)C1CCC1)NC(=O)c1ccccc1`: the cell number change was 13.5%. Turning to `CN(c1ccccc1C(=O)O)S(C)(=O)=O`, the cell number change is 2.58%. In addition, the AC50 under setting [1] was 2.91 µM [rising, single point]. Consider `O=C(NCC1CCCO1)c1nn2c(C(F)(F)F)cc(-c3cc(Br)cs3)nc2c1Br` (configuration not stated), for which the AC50 under setting [2] was 6.51 µM [rising, single point]. With `CCOc1ccc(-c2csc(NC(=O)CSC3=NC(=O)CN3C(C)=O)n2)c2ccccc12`, the cell number change is -53.8%. The half-maximal activity concentration (AC50) under setting [2] was 23.1 µM [falling, partial curve, poor fit]. Under setting [1], the AC50 is 16.4 µM [falling, partial curve].

`COc1ccc(/C=C2\SC(=S)N(CCCC(=O)Nc3ccc(O)cc3)C2=O)cc1`: the cell number change is -49.9%. For the same compound, under setting [2], the AC50 was 2.06 µM [rising, single point]. Under setting [1], the AC50 was 32.6 µM [falling, partial curve, poor fit].

Consider `O=C(NCc1ccncc1)C(=O)N/N=C/c1ccc(OCc2ccccc2)cc1`, for which the cell number change amounted to 63%. Further, the AC50 under setting [2] is 29.1 µM [rising, single point]. Moreover, the concentration at half-maximal activity (AC50) under setting [1] is 4.11 µM [falling, partial curve].

`CC(=O)c1c(C)nc2ccc(Br)cc2c1-c1ccccc1`: the cell number change is -12.1%. Also, the AC50 under setting [2] was 0.00517 µM [falling, full curve, poor fit]. For `CCN(C(=O)CN1CCN(c2ccccc2)CC1)c1c(N)n(Cc2ccccc2)c(=O)[nH]c1=O`, under setting [1], the AC50 is 0.206 µM [falling, full curve, poor fit]. As to `O=C(C1CCC(=O)N1C1CCCCC1)N1CCN(c2ccc(F)cc2)CC1` (configuration not stated), the cell number change amounted to 16.7%. The AC50 under setting [1] is 29.1 µM [rising, single point].

As to `CCOc1cc(/C=C2\C(=O)N(c3ccc(C(N)=O)cc3)N=C2C)ccc1OC(=O)c1cccs1`, the cell number change is -14.6%.

Consider `Cc1ccccc1NC(=O)C1CCCN1S(=O)(=O)c1ccccc1C(F)(F)F` (configuration not stated), for which the cell number change was -23.4%. As to `Cc1ccc(NC(=O)c2cc3c(=O)oc4ccccc4c3s2)nc1`, the cell number change was found to be 9.17%. Further, the AC50 under setting [1] was 0.103 µM [rising, full curve, poor fit]. Regarding `CCOC(=S)SCc1cn2ccccc2n1`, the cell number change amounted to 31.7%. For the same compound, under setting [2], the AC50 is 29.1 µM [rising, single point]. Also, the AC50 under setting [1] was 0.651 µM [rising, full curve, poor fit].

In the case of `O=C1CCCC(=O)C1Sc1ccc(Cl)cc1`, the cell number change worked out at 13.9%. Consider `CN1CCCN(c2ncnc3scc(-c4ccc(F)cc4)c23)CC1`, for which the cell number change was -1.58%. As for `COc1ccc(NC(=O)C2CCCN(S(=O)(=O)c3cccnc3)C2)cc1OC` (configuration not stated), the cell number change was -1.4%. Under setting [1], the AC50 was 29.1 µM [rising, single point]. On to `CCOC(=O)C1=C(O)/C(=C\c2cccc(OC)c2)N=C1C`, for which the cell number change was -0.287%. Also, the AC50 under setting [1] was 32.6 µM [falling, single point]. In the case of `CC(=O)Nc1cccc(NC(=O)CSc2nc(C)c(C)c(C)c2C#N)c1`, the cell number change was determined as 5.61%. For the same compound, the AC50 under setting [1] was 0.517 µM [rising, full curve]. Turning to `Cc1ccc(NC(=O)CN2CCc3ccccc3C2)cc1C`, the cell number change is 16%. For the same compound, the AC50 under setting [1] is 29.1 µM [rising, single point]. Regarding `COc1cc(-c2nnc3n(CCc4ccccc4)c(=O)c4ccccc4n23)cc(OC)c1OC`, the cell number change was 38.7%. The AC50 under setting [2] was 8.2 µM [rising, partial curve]. For `COC(C(=O)Nc1ccnn1C1CCN(C(=O)c2ccc(C=O)cc2)CC1)c1ccccc1` (configuration not stated), the cell number change is -7.25%. In addition, the AC50 under setting [2] is 6.51 µM [falling, partial curve, poor fit].

As for `Cc1ccc(S(=O)(=O)c2nc(-c3ccccc3)oc2NCCN2CCOCC2)cc1`, the AC50 under setting [2] was 0.651 µM [rising, single point] and the AC50 under setting [1] was 0.231 µM [rising, full curve, poor fit]. Turning to `Cc1ccc2c(c1)N(C(=O)CCC(=O)N1CCOCC1)CC(C)O2` (configuration not stated), the cell number change is -7.49%. `CCOC(=O)c1c(-c2ccc(C)o2)csc1NC(=S)NC(=O)c1ccccc1Br`: under setting [2], the AC50 is 0.0517 µM [rising, full curve, poor fit].

In the case of `CN(CC(=O)Nc1ccc(N2CCOCC2)cc1)C(=O)CSc1ccccc1F`, the cell number change was -3.51%. Moreover, under setting [1], the AC50 was 29.1 µM [falling, single point]. In the case of `CC(C)NC(=S)N=Nc1c(O)[nH]c2ccc([N+](=O)[O-])cc12`, the cell number change was -6.24%. Besides, the AC50 under setting [1] was 1.16 µM [falling, single point]. For the compound `COc1ccccc1CN(C)C(=O)c1cc(-c2cc(OC)c(OC)c(OC)c2)nc2ccccc12`, the cell number change came to 9.13%. In the case of `Nc1nonc1C(=O)N/N=C/c1cccc([N+](=O)[O-])c1`, the cell number change was -23.1%. For the compound `COc1ccc(CSCCNC(=S)Nc2ccccc2)cc1Cl`, the cell number change worked out at 31.1%. For `CN1CCN(C(=O)C2=C[C@H](C(C)(C)C)C[C@H](OCCCCO)O2)CC1`, the cell number change was -8.85%. In addition, under setting [1], the AC50 was 4.61 µM [falling, full curve]. Consider `N#CCCN(CCC#N)S(=O)(=O)c1ccc(C(=O)Nc2nc(-c3ccccc3)c(C(=O)c3ccccc3)s2)cc1`, for which the cell number change was 20.8%. In addition, the AC50 under setting [1] was 18.4 µM [rising, single point]. On to `Fc1cccc(F)c1CSc1nc2ccccc2[nH]1`, for which the cell number change came out at 12%. For the same compound, the AC50 under setting [1] is 29.1 µM [falling, single point].

Take `O=[N+]([O-])c1ccn(-c2nc(-c3cccs3)cc(C(F)(F)F)n2)n1`: the cell number change worked out at 16.6%. Take `Cc1cc(Cl)ccc1OCC(=O)N/N=C/c1ccncc1`: the cell number change stood at 7.66%. The AC50 under setting [1] is 0.58 µM [falling, single point]. On to `O=C1C=C(c2ccc(O)cc2)C[C@@H](c2ccc(Cl)cc2)C1`, for which the cell number change is -73.5%. Further, under setting [2], the AC50 is 23.1 µM [falling, single point]. Besides, the AC50 under setting [1] was 0.651 µM [rising, single point]. Consider `O=C(Oc1ccc2c(=O)c(Oc3ccc4ccccc4c3)coc2c1)c1cccnc1`, for which the cell number change was -20.8%. Moreover, the AC50 under setting [1] was 4.11 µM [falling, full curve]. Consider `CC(C)N(Cc1ccccc1)C(=O)CC(=O)N(Cc1ccccc1)C(C)C`, for which the AC50 under setting [1] was 29.1 µM [rising, single point]. As for `CN1c2cccc3cccc(c23)N(C)C1c1cccs1`, the cell number change was 156%. Besides, the AC50 under setting [2] is 20.6 µM [rising, partial curve, poor fit].

What is called AC50 is the midpoint of the concentration-response curve, whichever way the signal moves. The low end stands for greater potency, the high end for weaker potency.

The values above are taken from PubChem BioAssay AID2685 (National Center for Advancing Translational Sciences (NCATS), 2010).
